Literature values as cited in patent publication US20220154156A1, “PROTEINS AND METHODS FOR DISRUPTING BACTERIAL COMMUNICATION” (REGENTS OF THE UNIVERSITY OF MINNESOTA, priority 2019, published 2022).
At least one read-out could not be matched to a standard name with certainty. Some of these results come from one statement about several compounds together.

Conditions: cited from earlier work; for Km: literature values of other lactonases

B1: AiiA: MLL lactonase from Bacillus thuringiensis, SEQ ID NO:3 (protein, listed as Bacillus thuringiensis)
chain: MANVIKARPKLYVMDNGRMRMDKNWMIAMHNPATIHNPNAQTEFVEFPIYTVLIDHPEGKILFDTSCNPNSMGPQGRWAESTQQMFPWTATEECYLHNRLEQLKVRPEDIRYVVASHLHLDHAGCLEMFTNATIIVHEDEFNGALQCYARNQKEGAYIWADIDAWIKNNLQWRTVKRHEDNILLAEGVKVLNFGSGHAWGMLGLHVELPETGGIILASDAIYTAESYGPPIKPPGIIYDSLGYMNTVERIRRIAQETKSQVWFGHDAEQFKKFRKSTEGYYETAGTAG
Q: For B1, which Km is on record?
A: 1.6 to 5.6 mM

B2: AiiB: MLL lactonase from Agrobacterium tumefaciens, SEQ ID NO:4 (protein, listed as Agrobacterium tumefaciens)
chain: MTNIAKAQPKLYVMDNGRMRMDKNWMIAMHNPATIANPNAPTEFIEFPIYTVLIDHPEGKILFDTSCNPDSMGAQGRWGEATQSMFPWTASEECYLHNRLEQLKVRPEDIKFVIASHLHLDHAGCLEMFTNATIIVHEDEFSGALQTYARNQTEGAYIWGDIDAWIKNNLNWRTIKRDEDNIVLAEGIKILNFGSGHAWGMLGLHVQLPEKGGIILASDAVYSAESYGPPIKPPGIIYDSLGFVRSVEKIKRIAKETNSEVWFGHDSEQFKRFRKSTEGYYE
Q: With B2 as the molecule, how does the Km read?
A: 1.6 to 5.6 mM

B3: AaL: MLL lactonase from Alicyclobacter acidoterrestris, SEQ ID NO:2 (protein, listed as Alicyclobacter acidoterrestris)
chain: MGNKLFVLDLGEIRVDENFIIANSTFVTPQKPTVSSRLIDIPVSAYLIQCTDATVLYDTGCHPECMGTNGRWPAQSQLNAPYIGASECNLPERLRQLGLSPDDISTVVLSHLHNDHAGCVEYFGKSRLIAHEDEFATAVRYFATGDHSSPYIVKDIEAWLATPRNWDLVGRDERERELAPGVNLLNFGTGHASGMLGLAVRLEKQPGFLLVSDACYTATNYGPPARRAGVLHDTIGYDRTVSHIRQYAESRSLTVLFGHDREQFASLIKSTDGFYE
Q: Which kcat/KM (substrate C6-AHL) does the source give for B3 here?
A: 170000 M⁻¹ s⁻¹
